# Laboratory results: patent publication US20060205790A1, “Medicinal arylethanolamine compounds” (priority 2002, published 2006)
# Sequences of proteins named here, by UniProt entry; tags and fusion partners are left off.
# UniProt P07550, whole entry: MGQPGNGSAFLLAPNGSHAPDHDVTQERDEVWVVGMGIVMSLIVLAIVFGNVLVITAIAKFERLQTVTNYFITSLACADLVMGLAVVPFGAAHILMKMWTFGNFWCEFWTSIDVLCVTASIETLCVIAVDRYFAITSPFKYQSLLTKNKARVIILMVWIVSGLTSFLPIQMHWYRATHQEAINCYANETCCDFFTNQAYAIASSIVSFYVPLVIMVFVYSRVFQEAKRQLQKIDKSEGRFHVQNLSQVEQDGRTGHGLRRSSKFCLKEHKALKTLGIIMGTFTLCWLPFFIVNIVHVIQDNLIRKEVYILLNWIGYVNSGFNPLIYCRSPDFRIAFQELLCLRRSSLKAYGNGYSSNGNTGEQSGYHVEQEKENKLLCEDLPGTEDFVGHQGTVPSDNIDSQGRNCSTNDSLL
# Counter-ions that a name gives are not always drawn. Some results were stated once for a whole list of compounds, not compound by compound.
# Molecular target: T1, human beta-2 receptor (Homo sapiens, UniProt P07550)
# T1 construct: expressed in transfected cells; host or cells: Chinese hamster ovary cells (whole cells or membranes derived from them)
# Assay: Chinese hamster ovary cells co-expressing the human receptor with a reporter gene, cAMP measurement, whole cells or membranes (Method 2)
# Format: cell-based
# Conditions: CHO cells or membranes
row,Structure (SMILES),pEC50 at the human beta-2 receptor
1,"OCc1cc([C@@H](O)CNCCc2ccc3c(c2)O[C@H](COCc2cccnc2)CO3)ccc1O [Example 4, 2-(Hydroxymethyl)-4-{(1R)-1-hydroxy-2-[(2-{(3R)-3-[(pnyridin-3-ylmethoxy)methyl]-2,3-dihydro-1,4-benzodioxin-6-yl}ethyl)amino]ethyl}phenol acetate]",> 6
2,"CC(=O)O.N#Cc1cccc(COC[C@@H]2COc3ccc(CCNC[C@H](O)c4ccc(O)c(CO)c4)cc3O2)c1 [Example 9, 3-[({(2R)-7-[2-({(2R)-2-Hydroxy-2-[4-hydroxy-3-(hydroxymethyl)phenyl]ethyl}amino)ethyl]-2,3-dihydro-1,4-benzodioxin-2-yl}methoxy)methyl]benzonitrile acetate]",> 6
3,"NC(=O)c1cccc(COC[C@@H]2COc3ccc(CCNC[C@H](O)c4ccc(O)c(CO)c4)cc3O2)c1 [Example 10, 3-[({(2R)-7-[2-({(2R-2-Hydroxy-2-[4-hydroxy-3-(hydroxymethyl)phenyl]ethyl}amino)ethyl]-2,3-dihydro-1,4-benzodioxin-2-yl}methoxy)methyl]benzamide acetate]",> 6
4,"NC(=O)Nc1cccc(COC[C@@H]2COc3ccc(CCNC[C@H](O)c4ccc(O)c(CO)c4)cc3O2)c1.O=CO [Example 14, N-{3-[({(2R)-7-[2-({(2R)-2-Hydroxy-2-[4-hydroxy-3-(hydroxymethyl)phenyl]ethyl}amino)ethyl]-2,3-dihydro-1,4-benzodioxin-2-yl}methoxy)methyl]phenyl}urea formate]",> 6
5,"OCc1cc([C@@H](O)CNCCc2ccc3c(c2)O[C@H](COCc2ccc(Cl)cc2)CO3)ccc1O [Example 15, 4-((1R)-2-{[2-((3R)-3-{[(4-Chlorobenzyl)oxy]methyl}-2,3-dihydro-1,4-benzodioxin-6-yl)ethyl]amino}-1-hydroxyethyl)-2-(hydroxymethyl)phenol]",> 6
6,"CC(OCC1COc2ccc(CCNCC(O)c3ccc(O)c(CO)c3)cc2O1)c1ccccc1 [Example 18, 2-(Hydroxymethyl)-4-{(1R)-1-hydroxy-2-[(2-}(3R)-3-[(1-phenylethoxy)methyl]-2,3-dihydro-1,4-benzodioxin-6-yl}ethyl)amino]ethyl}phenol formate]",> 6
7,"OCc1nc(C(O)CNCCc2ccc3c(c2)O[C@H](COCc2ccccc2)CO3)ccc1O (stereo partly drawn) [Example 22, 6-{2-[(2-{(3R)-3-[(Benzyloxy)methyl]-2,3-dihydro-1,4-benzodioxin-6-yl}ethyl)amino]-1-hydroxyethyl}-2-(hydroxymethyl)pyridin-3-ol]",> 6
8,"CS(=O)(=O)Nc1cc([C@@H](O)CNCCc2ccc3c(c2)O[C@H](COCc2ccccc2)CO3)ccc1O [Example 23, N-(5-{(1R)-2-[(2-{(3R)-3-[(Benzyloxy)methyl]-2,3-dihydro-1,4-benzodioxin-6-yl}ethyl)amino]-1-hydroxyethyl)-2-hydroxyphenyl)methanesulfonamide]",> 6
9,Oc1ccc([C@@H](O)CNCCc2ccc3c(c2)O[C@H](COCc2ccccc2)CO3)cc1F [Example 24],> 6
10,"Cc1cc(O)ccc1[C@@H](O)CNCCc1ccc2c(c1)O[C@H](COCc1ccccc1)CO2 [Example 25, 4-{(1R)-2-[(2-{(3R)-3-[(Benzyloxy)methyl]-2,3-dihydro-1,4-benzodioxin-6-yl}ethyl)amino]-1-hydroxyethyl}-3-methylphenol]",> 6
11,"Nc1c(Cl)cc([C@@H](O)CNCCc2ccc3c(c2)O[C@H](COCc2ccccc2)CO3)cc1Cl [Example 26, (1R)-1-(4-Amino-3,5-dichlorophenyl)2-[(2-{(3R)-3-[(benzyloxy)methyl]-2,3-dihydro-1,4-benzodioxin-6-yl}ethyl)amino]ethanol]",> 6

# Molecular target: T2, human beta 2 adrenoreceptor (Homo sapiens, UniProt P07550)
# T2 construct: expressed in transfected cells; host or cells: frog melanophores
# Assay: Frog melanophores transfected with the human beta 2 adrenoreceptor, pigment dispersal (Method 1)
# Format: cell-based
# Conditions: change in light transmittance after melatonin-induced pigment aggregation
row,Structure (SMILES),IC50
1,"OCc1cc([C@@H](O)CNCCc2ccc3c(c2)O[C@H](COCc2cccnc2)CO3)ccc1O [Example 4, 2-(Hydroxymethyl)-4-{(1R)-1-hydroxy-2-[(2-{(3R)-3-[(pnyridin-3-ylmethoxy)methyl]-2,3-dihydro-1,4-benzodioxin-6-yl}ethyl)amino]ethyl}phenol acetate]",< 1000 nM
